Assay results published in patent US20220267805A1.

Amino acid sequences for entries named in this document (tags omitted). A change or cut given only in a name is not applied to a line headed by its entry. Residues count along the entry.
UniProt P00742: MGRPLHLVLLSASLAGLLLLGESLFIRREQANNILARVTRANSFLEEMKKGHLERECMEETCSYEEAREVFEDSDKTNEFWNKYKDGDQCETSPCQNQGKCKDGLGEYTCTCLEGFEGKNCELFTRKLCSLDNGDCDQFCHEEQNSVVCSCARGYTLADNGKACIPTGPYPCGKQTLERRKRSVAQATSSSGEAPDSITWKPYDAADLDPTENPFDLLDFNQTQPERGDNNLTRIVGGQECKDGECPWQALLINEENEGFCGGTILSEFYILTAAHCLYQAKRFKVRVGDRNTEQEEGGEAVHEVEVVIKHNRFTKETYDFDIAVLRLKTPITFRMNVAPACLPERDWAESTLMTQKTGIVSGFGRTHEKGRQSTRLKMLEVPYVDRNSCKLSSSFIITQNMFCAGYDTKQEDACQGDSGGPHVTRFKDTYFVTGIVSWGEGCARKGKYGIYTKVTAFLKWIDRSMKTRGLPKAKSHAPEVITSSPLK
UniProt P10646, residues 29-304: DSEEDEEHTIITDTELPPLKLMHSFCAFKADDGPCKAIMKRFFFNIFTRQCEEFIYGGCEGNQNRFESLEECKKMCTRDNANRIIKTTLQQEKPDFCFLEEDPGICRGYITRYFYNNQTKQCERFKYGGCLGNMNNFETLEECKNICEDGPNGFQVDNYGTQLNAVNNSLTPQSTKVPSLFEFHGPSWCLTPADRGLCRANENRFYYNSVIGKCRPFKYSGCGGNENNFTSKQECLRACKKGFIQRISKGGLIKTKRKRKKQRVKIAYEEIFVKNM

Columns and labels:
[1] = biological target: human factor Xa (human) (UniProt P00742); assay: TFPI activity and human factor Xa binding assay on PMA-activated endothelial cells
[2] = biological target: human factor Xa (human) (UniProt P00742); assay: TFPI activity and human factor Xa binding assay on PMA-activated endothelial cells (unbound Xa read against an rTFPI standard curve)

human tissue factor pathway inhibitor (TFPI) transgene product on the surface of PMA-activated Pig 2.0 (3KO+9TG) and Pig 3.0 (3KO+9TG) PUVECs (from UniProt P10646 29-304)
binding [1]: binds | binding [2]: binds

These are yes or no findings as the source states them, for the method shown. A result given as binding can be weak or reduced; the word gives no strength.
